In paper PMC9795039, “Kindlin2 enables EphB/ephrinB bi-directional signaling to support vascular development” (Life Science Alliance, 2022):
Results are given in words; binding and its absence hold for the method and conditions named. In cells and extracts the contact can be indirect. Here binding means that the protein was enriched with, or labelled near, the bait; the list need not be complete.

Chains of the proteins cited; added tags and fusions are not shown.
UniProt Q7Z5R6: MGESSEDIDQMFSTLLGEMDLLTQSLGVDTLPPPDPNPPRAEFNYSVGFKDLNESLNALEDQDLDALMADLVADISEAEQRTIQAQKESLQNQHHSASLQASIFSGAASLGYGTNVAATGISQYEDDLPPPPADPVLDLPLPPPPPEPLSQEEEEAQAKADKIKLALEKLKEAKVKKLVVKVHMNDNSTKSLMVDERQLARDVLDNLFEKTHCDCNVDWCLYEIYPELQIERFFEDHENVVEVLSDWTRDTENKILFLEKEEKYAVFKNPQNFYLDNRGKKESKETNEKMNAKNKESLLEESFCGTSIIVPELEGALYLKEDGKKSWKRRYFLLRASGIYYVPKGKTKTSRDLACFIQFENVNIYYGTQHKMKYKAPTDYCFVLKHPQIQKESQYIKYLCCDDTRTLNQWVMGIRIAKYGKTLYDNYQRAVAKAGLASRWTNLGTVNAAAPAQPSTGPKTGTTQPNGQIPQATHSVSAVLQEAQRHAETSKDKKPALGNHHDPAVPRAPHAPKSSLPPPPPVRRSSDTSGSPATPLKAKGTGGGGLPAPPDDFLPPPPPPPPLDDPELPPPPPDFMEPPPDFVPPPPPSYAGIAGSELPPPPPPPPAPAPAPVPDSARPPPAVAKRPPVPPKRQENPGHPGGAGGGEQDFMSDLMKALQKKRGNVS
UniProt Q9Y4G6: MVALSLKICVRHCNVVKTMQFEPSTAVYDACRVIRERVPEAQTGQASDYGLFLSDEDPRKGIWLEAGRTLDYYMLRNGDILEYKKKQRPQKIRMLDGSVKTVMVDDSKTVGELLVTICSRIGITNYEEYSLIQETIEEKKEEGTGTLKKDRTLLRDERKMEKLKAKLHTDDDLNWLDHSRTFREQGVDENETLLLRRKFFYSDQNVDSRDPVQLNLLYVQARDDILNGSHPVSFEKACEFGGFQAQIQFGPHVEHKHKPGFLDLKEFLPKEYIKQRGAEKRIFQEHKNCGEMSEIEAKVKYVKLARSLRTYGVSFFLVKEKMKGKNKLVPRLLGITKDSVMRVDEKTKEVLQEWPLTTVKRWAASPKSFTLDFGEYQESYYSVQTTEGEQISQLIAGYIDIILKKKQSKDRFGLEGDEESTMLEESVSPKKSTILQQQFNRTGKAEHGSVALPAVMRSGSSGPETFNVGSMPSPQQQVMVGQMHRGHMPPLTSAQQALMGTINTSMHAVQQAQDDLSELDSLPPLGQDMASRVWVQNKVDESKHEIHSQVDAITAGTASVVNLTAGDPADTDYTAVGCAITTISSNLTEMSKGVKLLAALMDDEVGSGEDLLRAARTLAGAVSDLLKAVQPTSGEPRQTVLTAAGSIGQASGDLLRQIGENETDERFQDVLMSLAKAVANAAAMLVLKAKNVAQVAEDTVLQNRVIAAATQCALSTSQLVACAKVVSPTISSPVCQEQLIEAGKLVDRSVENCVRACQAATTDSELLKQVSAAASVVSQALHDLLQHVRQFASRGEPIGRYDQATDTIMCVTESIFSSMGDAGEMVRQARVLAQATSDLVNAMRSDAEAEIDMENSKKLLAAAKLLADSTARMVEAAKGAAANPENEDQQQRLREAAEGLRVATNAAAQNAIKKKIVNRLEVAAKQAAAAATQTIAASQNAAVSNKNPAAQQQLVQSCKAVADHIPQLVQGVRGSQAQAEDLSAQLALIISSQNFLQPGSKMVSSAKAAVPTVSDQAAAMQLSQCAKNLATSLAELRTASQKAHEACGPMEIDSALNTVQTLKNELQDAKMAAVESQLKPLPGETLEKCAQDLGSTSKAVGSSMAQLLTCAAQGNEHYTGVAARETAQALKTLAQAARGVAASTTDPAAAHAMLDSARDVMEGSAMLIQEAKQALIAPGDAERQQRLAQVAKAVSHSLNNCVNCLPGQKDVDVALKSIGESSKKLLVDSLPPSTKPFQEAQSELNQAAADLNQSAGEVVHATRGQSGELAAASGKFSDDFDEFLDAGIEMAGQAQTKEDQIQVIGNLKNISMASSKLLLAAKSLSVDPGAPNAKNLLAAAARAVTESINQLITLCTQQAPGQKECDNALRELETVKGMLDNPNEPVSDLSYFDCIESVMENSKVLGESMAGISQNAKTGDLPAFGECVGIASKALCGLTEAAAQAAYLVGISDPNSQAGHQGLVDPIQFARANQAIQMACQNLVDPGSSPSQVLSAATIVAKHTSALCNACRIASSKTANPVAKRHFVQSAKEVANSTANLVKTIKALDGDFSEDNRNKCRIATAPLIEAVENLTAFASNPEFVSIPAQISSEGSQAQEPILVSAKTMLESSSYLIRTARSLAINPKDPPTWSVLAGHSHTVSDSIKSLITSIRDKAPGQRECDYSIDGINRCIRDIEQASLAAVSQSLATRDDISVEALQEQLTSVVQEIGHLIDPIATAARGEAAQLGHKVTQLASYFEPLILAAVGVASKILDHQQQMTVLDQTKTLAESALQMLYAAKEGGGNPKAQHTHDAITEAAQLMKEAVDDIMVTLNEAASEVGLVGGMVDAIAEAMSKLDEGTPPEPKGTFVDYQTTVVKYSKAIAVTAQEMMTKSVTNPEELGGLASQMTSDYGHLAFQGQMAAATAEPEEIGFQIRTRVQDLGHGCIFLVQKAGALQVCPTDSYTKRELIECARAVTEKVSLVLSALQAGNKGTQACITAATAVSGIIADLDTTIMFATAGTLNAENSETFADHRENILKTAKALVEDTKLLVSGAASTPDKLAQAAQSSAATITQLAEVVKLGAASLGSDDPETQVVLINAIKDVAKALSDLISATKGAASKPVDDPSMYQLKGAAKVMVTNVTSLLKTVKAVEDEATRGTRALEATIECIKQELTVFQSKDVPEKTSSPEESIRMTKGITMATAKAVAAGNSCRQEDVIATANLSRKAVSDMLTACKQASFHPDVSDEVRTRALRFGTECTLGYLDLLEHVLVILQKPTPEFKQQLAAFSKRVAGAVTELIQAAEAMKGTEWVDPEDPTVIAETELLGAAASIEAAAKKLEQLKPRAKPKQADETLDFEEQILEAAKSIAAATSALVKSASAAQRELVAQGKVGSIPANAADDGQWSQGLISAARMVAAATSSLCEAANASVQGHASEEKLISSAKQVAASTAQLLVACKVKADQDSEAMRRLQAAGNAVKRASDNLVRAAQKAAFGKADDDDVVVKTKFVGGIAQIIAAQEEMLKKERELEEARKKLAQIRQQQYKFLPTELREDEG

Biological target: BirA*-FLAG-RIAM (UniProt Q7Z5R6)
Experiment: proximity labelling; BioID: BirA*-FLAG baits in Flp-In T-REx HEK293 cells, tetracycline and biotin for 24 h, mass spectrometry, SAINTexpress, 1% FDR

binding: binds
Substance: talin2 (from UniProt Q9Y4G6 1-2542)
